The source of these data is the supplement of paper PMC12889115.

The other results are listed elsewhere or left out. These are raw signals, not scaled to a control.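 In the initial screen, polymyxin B was used at a concentration that permeabilizes Salmonella's outer membrane but not its inner membrane. Maximum growth was set by DMSO wells with or without polymyxin B. Since plates varied, data were ranked per plate, and compounds giving the lowest OD600 advanced as hits.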

For this experiment, the system named is Salmonella enterica serovar Typhimurium SL1344. The experiment can be described thus: bacterial growth OD600 after 18 h with compound and polymyxin B; higher = more bacterial growth (less inhibition). To be noted: 50 µM, Mueller-Hinton broth.

Turning to `CCn1cc(CN2CCCC(CCc3cccc(OC)c3)C2)cn1` (centres undefined), the “bacterial growth OD600” value (polymyxin B 0.75 µg/mL) was 0.859. Regarding `O=C(c1nc2ccccn2c1CN1CCCCCCC1)N1CCN(C2CCCCC2)CC1`, for the setting “polymyxin B 1 µg/mL”, the “bacterial growth OD600” value was found to be 0.937. Regarding `Cc1ccccc1CN(CC1CCN(C2CCCC2)CC1)CC1CCCO1` (centres undefined), the “bacterial growth OD600” value (polymyxin B 1 µg/mL) was determined as 0.893. Regarding `COc1ccc(OC2CCN(C3CCCC3)CC2)c(C(=O)NCCOC(C)C)c1`, the “bacterial growth OD600” value (polymyxin B 1 µg/mL) was determined as 0.964. With `O=C(CCc1ccccn1)N1CC[C@@H](N2CCN(c3ccccc3F)CC2)[C@H](O)C1`, under “polymyxin B 1 µg/mL”, the “bacterial growth OD600” value amounted to 0.922.

On to `COC(=O)C1CCN(C(=O)c2cn(CCC3CCCCC3)nn2)CC1`, for which, under “polymyxin B 1 µg/mL”, the “bacterial growth OD600” value turned out to be 0.825. As to `CC(C)CCC1(C2CCN(C(=O)C3=CCCC3)CC2)NC(=O)N(Cc2ccccn2)C1=O` (centres undefined), for the setting “polymyxin B 0.75 µg/mL”, the “bacterial growth OD600” value was 0.835. On the same count and under the same terms, next, `OC(CCc1ccccc1)c1ccc2c(c1)CN(Cc1cccn1-c1ccccn1)CCO2` (centres undefined): 0.594. Take `O=C(NC1CC(=O)N(Cc2ccccc2C(F)(F)F)C1)c1ccsc1` (centres undefined): for the setting “polymyxin B 1 µg/mL”, the “bacterial growth OD600” value was 0.921. Consider `COc1ccc(C(=O)NCC(C)(C)CO)cc1OC1CCN(C(C)C)CC1`, for which the “bacterial growth OD600” value (polymyxin B 0.75 µg/mL) came to 0.974. Turning to `O=C(CCC1CCN(S(=O)(=O)c2ccc(Cl)cc2)CC1)NCc1ccc(F)cc1`, the “bacterial growth OD600” value (polymyxin B 1 µg/mL) amounted to 1.1.

Turning to `CCOc1ccc2nc(N3CCCN(Cc4cccc5nccnc45)CC3)nc(C)c2c1`, the “bacterial growth OD600” value (polymyxin B 0.75 µg/mL) was found to be 1.03. Regarding `Cc1ccccc1-c1cnnc(N(C)Cc2nc3cccc(C)c3[nH]2)n1`, the “bacterial growth OD600” value (polymyxin B 0.75 µg/mL) is 0.681.

`Cc1nc2ccccc2n1Cc1cc(C(=O)N2CCCN(C3CCCC3)CC2)n[nH]1`: the “bacterial growth OD600” value (polymyxin B 1 µg/mL) was 0.94. On to `COc1cc(=O)n2c(c1C(=O)NCc1ccc3c(c1)OCO3)CCN(C(=O)CC(C)(C)C)CC2`, for which the “bacterial growth OD600” value (polymyxin B 0.75 µg/mL) was determined as 0.873. Regarding `O=C(C1CC1)N1CCCC(CCc2cccc(F)c2)C1` (centres undefined), the “bacterial growth OD600” value (polymyxin B 0.75 µg/mL) was 0.469.

For the compound `Cc1cccnc1CN1CCN(C(=O)Cn2nnnc2CN2CCCC2)CC1`, the “bacterial growth OD600” value (polymyxin B 0.75 µg/mL) worked out at 0.834. For `CC(=O)Nc1cc(C(=O)N2CCC(c3ccc(F)cc3)C2)c2c(c1)nc(C)n2Cc1ccccc1` (centres undefined), the “bacterial growth OD600” value (polymyxin B 0.75 µg/mL) came to 0.931. On the same count and under the same terms, the same measure for `O=C(NCCN1CCCCC1=O)c1ccc2nc(Cc3ccccc3F)oc2c1`: 0.839.
